Some entries share one result that the patent states for a list of compounds.
How the values were obtained:
HiBiT-BRD4 = target: T1, HiBiT-BRD4 (Homo sapiens, UniProt O60885); test: Live-cell kinetic degradation, CRISPR HiBiT-BRD4 HEK293 cells; type: cell-based; details: for dose response kinetic degradation of HiBiT-BRD4: 4 nM-1 μM; for initial rate and maximal level of BRD4 degradation: 1 μM, live cell luminescence over 24 h
T1 construct: endogenously HiBiT tag the N-terminal genomic loci of BRD2, BRD3, or BRD4; endogenous in cells; host or cells: HEK293 stably expressing LgBiT, CRISPR/Cas9 edited

BRD2, BRD3 and BRD4 = test: Immunoblot degradation of BET proteins in HEK293 cells; type: cell-based, human; details: 4 h treatment, across all the BET proteins
Method: To evaluate the ability of trivalent compounds to induce intracellular degradation of BET proteins, the inventors first treated human HEK293 cells for 4 hours at 1 μM concentration and assessed levels of BRD2, BRD3 and BRD4 by western blot. […] To confirm the greater activity of VHL-based compounds compared to CRBN-based PROTACs they next used live cell continual luminescent monitoring of CRISPR/Cas9 endogenously tagged HiBiT-BRD4 in HEK293 cells over 24 h^29,31. […] To confirm greater potency of VHL-based compounds, the inventors evaluated growth inhibition profiles of BET-sensitive cancer cell lines MV4; 11 (FIG. 1f), A549 and HL-60 (FIG. 6c) with compound treatments. […] Together, the initial screens support greater activity of structure-guided designed VHL degraders over their homologous CRBN molecules.
Degradation assays. MV4; 11 cells were seeded at 1×10^6 cells/mL of 10 cm dishes 12-24 h before treatment. 22Rv1 and HEK293 cells were seeded at 2.5-6×10^5 cells/well of 6 well plates 12-24 h before treatment. […] Protein concentration was determined by BCA assay (Pierce) and the absorbance at 562 nm measured by spectrophotometry (NanoDrop ND1000). […] Bands were detected using a ChemiDoc MP imaging system (BioRad) and quantified (Image Studio Lite, version 5.2) with normalisation to β-actin and the DMSO control per time point. […]

MV4; 11, A549 and HL-60 = test: Growth inhibition of BET-sensitive cancer cell lines (CellTiter-Glo); type: cell-based; details: 48 h; MV4;11, A549, HL-60
cMyc-HiBiT = cMyc-HiBiT loss in MV4;11 cells; type: cell-based; details: MV4;11 cMyc-HiBiT, over 24 h

Row | SMILES | dose response kinetic degradation of HiBiT-BRD4 (HiBiT-BRD4) | initial rate and maximal level of BRD4 degradation (HiBiT-BRD4) | DC50 (BRD2, BRD3 and BRD4) [nM] | growth inhibition (MV4; 11, A549 and HL-60) | concentration giving rapid and complete loss of cMyc (cMyc-HiBiT) [nM]
1 | Cc1ncsc1-c1ccc(CNC(=O)[C@@H]2C[C@@H](O)CN2C(=O)[C@@H](NC(=O)COCC(C)(COCCOCCOCCOCCNC(=O)C[C@@H]2N=C(c3ccc(Cl)cc3)c3c(sc(C)c3C)-n3c(C)nnc32)COCCOCCOCCOCCNC(=O)C[C@@H]2N=C(c3ccc(Cl)cc3)c3c(sc(C)c3C)-n3c(C)nnc32)C(C)(C)C)cc1 [SIM3, N,N′-(14-((2-(((S)-1-((2S,4R)-4-hydroxy-2-((4-(4-methylthiazol-5-yl)benzyl)carbamoyl)pyrrolidin-1-yl)-3,3-dimethyl-1-oxobutan-2-yl)amino)-2-oxoethoxy)methyl)-14-methyl-3,6,9,12,16,19,22,25-octaoxaheptacosane-1,27-diyl)bis(2-((S)-4-(4-chlorophenyl)-2,3,9-trimethyl-6H-thieno[3,2-f][1,2,4]triazolo[4,3-a][1,4]diazepin-6-yl)acetamide)] | rapid and complete degradation from 4 nM-1 μM with no observable hook effect | Faster initial rates of BRD4 degradation accompanied by greater maximal degradation levels | 0.7 to 9.5 | more potent activity relative to SIM4-SIM6 | –
2 | Cc1ncsc1-c1ccc(CNC(=O)[C@@H]2C[C@@H](O)CN2C(=O)[C@@H](NC(=O)COCCOCC(C)(COCCOCCOCCNC(=O)C[C@@H]2N=C(c3ccc(Cl)cc3)c3c(sc(C)c3C)-n3c(C)nnc32)COCCOCCOCCNC(=O)C[C@@H]2N=C(c3ccc(Cl)cc3)c3c(sc(C)c3C)-n3c(C)nnc32)C(C)(C)C)cc1 [SIM2, N,N′-(11-((2-(2-(((S)-1-((2S,4R)-4-hydroxy-2-((4-(4-methylthiazol-5-yl)benzyl)carbamoyl)pyrrolidin-1-yl)-3,3-dimethyl-1-oxobutan-2-yl)amino)-2-oxoethoxy)ethoxy)methyl)-11-methyl-3,6,9,13,16,19-hexaoxahenicosane-1,21-diyl)bis(2-((S)-4-(4-chlorophenyl)-2,3,9-trimethyl-6H-thieno[3,2-f][1,2,4]triazolo[4,3-a][1,4]diazepin-6-yl)acetamide)] | rapid and complete degradation from 4 nM-1 μM with no observable hook effect | Faster initial rates of BRD4 degradation accompanied by greater maximal degradation levels | 0.7 to 9.5 | more potent activity relative to SIM4-SIM6 | –
3 | Cc1ncsc1-c1ccc(CNC(=O)[C@@H]2C[C@H](O)CN2C(=O)[C@@H](NC(=O)COCC(C)(COCCOCCOCCNC(=O)C[C@@H]2N=C(c3ccc(Cl)cc3)c3c(sc(C)c3C)-n3c(C)nnc32)COCCOCCOCCNC(=O)C[C@@H]2N=C(c3ccc(Cl)cc3)c3c(sc(C)c3C)-n3c(C)nnc32)C(C)(C)C)cc1 [cis-SIM1, N,N′-(11-((2-(((S)-1-((2S,4S)-4-hydroxy-2-((4-(4-methylthiazol-5-yl)benzyl)carbamoyl)pyrrolidin-1-yl)-3,3-dimethyl-1-oxobutan-2-yl)amino)-2-oxoethoxy)methyl)-11-methyl-3,6,9,13,16,19-hexaoxahenicosane-1,21-diyl)bis(2-((S)-4-(4-chlorophenyl)-2,3,9-trimethyl-6H-thieno[3,2-f][1,2,4]triazolo[4,3-a][1,4]diazepin-6-yl)acetamide)] | – | – | – | – | 50 to 100
